Experimental data as given in patent US20200376029A1.
These are yes or no findings as the source states them, for the method shown. Some binding calls cover weakened binding; strength is not graded here.

Legend:
[1] = target: T1, human glypican 1 (hGPC1) (human) (UniProt P35052); test: immunostaining of frozen human tissue sections
T1 sequence (looked up): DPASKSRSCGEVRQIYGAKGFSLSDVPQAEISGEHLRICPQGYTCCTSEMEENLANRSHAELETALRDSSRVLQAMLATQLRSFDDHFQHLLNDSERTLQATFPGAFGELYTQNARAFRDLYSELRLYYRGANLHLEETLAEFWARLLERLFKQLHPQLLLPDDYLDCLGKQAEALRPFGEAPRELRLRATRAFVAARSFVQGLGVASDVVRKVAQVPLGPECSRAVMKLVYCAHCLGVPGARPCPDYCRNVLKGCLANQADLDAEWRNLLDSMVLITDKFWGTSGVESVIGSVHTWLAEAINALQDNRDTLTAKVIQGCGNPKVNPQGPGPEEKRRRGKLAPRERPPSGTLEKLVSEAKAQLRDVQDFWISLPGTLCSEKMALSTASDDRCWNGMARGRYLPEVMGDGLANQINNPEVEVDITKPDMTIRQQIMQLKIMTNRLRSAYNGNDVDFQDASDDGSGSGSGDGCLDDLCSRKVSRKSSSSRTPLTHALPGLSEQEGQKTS

[2] = target: T2, mouse glypican 1 (mGPC1) (mouse) (UniProt Q9QZF2); test: immunostaining of MC38-mGPC1 cells and mouse tissues
T2 sequence (looked up): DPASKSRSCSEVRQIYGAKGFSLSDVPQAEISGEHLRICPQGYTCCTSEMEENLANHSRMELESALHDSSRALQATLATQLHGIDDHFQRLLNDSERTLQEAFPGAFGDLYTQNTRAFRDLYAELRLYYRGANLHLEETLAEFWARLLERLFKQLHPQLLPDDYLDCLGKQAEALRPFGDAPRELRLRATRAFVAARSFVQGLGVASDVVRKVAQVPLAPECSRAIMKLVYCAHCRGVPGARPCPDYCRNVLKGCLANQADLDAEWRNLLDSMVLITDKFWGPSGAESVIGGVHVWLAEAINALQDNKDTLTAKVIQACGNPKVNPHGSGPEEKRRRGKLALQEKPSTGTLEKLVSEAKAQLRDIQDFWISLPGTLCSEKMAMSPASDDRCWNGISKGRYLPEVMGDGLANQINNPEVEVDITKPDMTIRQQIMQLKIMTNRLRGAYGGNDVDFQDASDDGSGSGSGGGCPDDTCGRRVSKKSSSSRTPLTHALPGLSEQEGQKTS

[3] = target: T2, mouse glypican 1 (mGPC1) (mouse); test: flow cytometry on MC38-mGPC1 and MCA205-mGPC1 cells, with isotype control
[4] = target: T1, human glypican 1 (hGPC1) (human); test: flow cytometry on LK2-hGPC1 cells against LK2-mock, with isotype control

Measured: binding

B1: anti-GPC1 monoclonal antibody (clone 1-12) (antibody, V domains shown)
VH: AVTLDESGGGLQTPGRALSLVCKASGFTFSRYAMYWVRQAPGKGLEFVAGIGNTGRYTGYGSAVKGRATISRDSGQSTVRLQLNNLRAEDTGNYYCAKSVSPYCCDAADIDAWGHGTEVIVSS
VL: ASTQPSSVSANPGETVKITCSGGSSGYAYGWYQQKSPGSAPVTLLYSNNNRPSDIPSRFSGSKSGSTATLTITGVQAEDEAVYFCGSVDSSSYAGIFGAGTTLTVL
binds: all assays above
